Data source: PubChem BioAssay AID1259425 (University of Nebraska Medical Center, 2018)
In all, the deposit lists about 14,000 reagents; this is a part drawn at random. Reagents against one gene are numbered here. Reagent sequences are not shown. Not stated in the record: the time to read-out.

Test: 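Find knockdowns that reproduce the gene expression pattern seen when KSR1 is lost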 (primary screen)
Cells: HCT116 human colon cancer cells
Reagent: siRNA pool against human genes, 50 nM siRNA
Read-out: 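mRNA of six signature genes measured together by branched-DNA assay after 50 nM siRNA pool, blank removed, divided by geometric mean of two housekeeping genes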
Direction: BNIP3L mRNA: higher = more BNIP3L transcript after knockdown; NDRG1 mRNA: higher = more NDRG1 transcript after knockdown; BNIP3 mRNA: higher = more BNIP3 transcript after knockdown; ALDOC mRNA: higher = more ALDOC transcript after knockdown; ACSL5 mRNA: higher = more ACSL5 transcript after knockdown

The first 2 records, ahead of the listing:
| target gene | pool no. | BNIP3L mRNA, set 1 | NDRG1 mRNA, set 1 | BNIP3 mRNA, set 1 | ALDOC mRNA, set 1 | ACSL5 mRNA, set 1 |
| --- | --- | --- | --- | --- | --- | --- |
| ZDHHC18 (zDHHC palmitoyltransferase 18) | 1 | 0.281 | 0.572 | 0.338 | 0.113 | 0.593 |
| RC3H2 (ring finger and CCCH-type domains 2) | 1 | 0.0765 | 0.166 | 0.304 | 0.0262 | 0.178 |

Results, from the start:
| target gene | pool no. | BNIP3L mRNA, set 1 | NDRG1 mRNA, set 1 | BNIP3 mRNA, set 1 | ALDOC mRNA, set 1 | ACSL5 mRNA, set 1 |
| --- | --- | --- | --- | --- | --- | --- |
| ZDHHC18 (zDHHC palmitoyltransferase 18) | 1 | 0.281 | 0.572 | 0.338 | 0.113 | 0.593 |
| RC3H2 (ring finger and CCCH-type domains 2) | 1 | 0.0765 | 0.166 | 0.304 | 0.0262 | 0.178 |
| GUSBP14 (GUSB pseudogene 14) | 1 | 0.348 | 1.05 | 0.515 | 0.0805 | 0.17 |
| GUSBP14 (GUSB pseudogene 14) | 2 | 0.188 | 0.59 | 0.382 | 0.0491 | 0.172 |
| CHN2 (chimerin 2) | 1 | 0.0679 | 0.119 | 0.241 | 0.06 | 0.165 |
| KDM8 (lysine demethylase 8 (putative)) | 1 | 0.149 | 0.266 | 0.288 | 0.0354 | 0.329 |
| POU3F1 (POU class 3 homeobox 1) | 1 | 0.12 | 0.209 | 0.357 | 0.0263 | 0.0757 |
| EDIL3 (EGF like and discoidin domains 3) | 1 | 0.0933 | 0.107 | 0.334 | 0.103 | 0.179 |
| HOXC11 (homeobox C11) | 1 | 0.128 | 0.0907 | 0.264 | 0.00525 | 0.0996 |
| H2BC5 (H2B clustered histone 5) | 1 | 0.11 | 0.25 | 0.417 | 0.0117 | 0.17 |
| CXCL12 (C-X-C motif chemokine ligand 12) | 1 | 0.0838 | 0.111 | 0.303 | 0.0483 | 0.23 |
| OR10A3 (olfactory receptor family 10 subfamily A member 3) | 1 | 0.114 | 0.22 | 0.33 | 0.0247 | 0.181 |
| P3H4 (prolyl 3-hydroxylase family member 4 (inactive)) | 1 | 0.144 | 0.165 | 0.3 | 0.0437 | 0.231 |
| LCE2B (late cornified envelope 2B) | 1 | 0.182 | 0.35 | 0.341 | 0.0232 | 0.2 |
| KIF12 (kinesin family member 12) | 1 | 0.122 | 0.653 | 0.251 | 0.0381 | 0.259 |
| TRIM49 (tripartite motif containing 49) | 1 | 0.18 | 0.215 | 0.293 | 0.134 | 0.568 |
| SAT1 (spermidine/spermine N1-acetyltransferase 1) | 1 | 0.114 | 0.235 | 0.243 | 0.0206 | 0.171 |
| DDR1 (discoidin domain receptor tyrosine kinase 1) | 1 | 0.163 | 0.434 | 0.29 | 0.0019 | 0.215 |
| ESR2 (estrogen receptor 2) | 1 | 0.103 | 0.376 | 0.219 | 0.0213 | 0.132 |
| GUK1 (guanylate kinase 1) | 1 | 0.135 | 0.0858 | 0.373 | 0.00846 | 0.0885 |
| CDC37 (cell division cycle 37, HSP90 cochaperone) | 1 | 0.097 | 0.169 | 0.426 | 0.0126 | 0.338 |
| MAP4K3 (mitogen-activated protein kinase kinase kinase kinase 3) | 1 | 0.12 | 0.0653 | 0.253 | 0.00774 | 0.184 |
| KCNA7 (potassium voltage-gated channel subfamily A member 7) | 1 | 0.0784 | 0.129 | 0.291 | 0.0698 | 0.109 |
| RNFT2 (ring finger protein, transmembrane 2) | 1 | 0.266 | 0.239 | 0.352 | 0.0233 | 0.453 |
| FOXN3 (forkhead box N3) | 1 | 0.0444 | 0.318 | 0.213 | 0.00291 | 0.255 |
| FOXN3 (forkhead box N3) | 2 | 0.235 | 0.489 | 0.971 | 0.0701 | 0.155 |
| ZNF324 (zinc finger protein 324) | 1 | 0.123 | 0.627 | 0.358 | 0.0534 | 0.14 |
| ADRA2C (adrenoceptor alpha 2C) | 1 | 0.0517 | 0.0985 | 0.24 | 0.0315 | 0.13 |
| RP9 (RP9 pre-mRNA splicing factor) | 1 | 0.0804 | 0.324 | 0.356 | 0.0308 | 0.17 |
| GMEB2 (glucocorticoid modulatory element binding protein 2) | 1 | 0.164 | 0.156 | 0.524 | 0.0288 | 0.341 |
| MMP23A (matrix metallopeptidase 23A (pseudogene)) | 1 | 0.14 | 0.212 | 0.271 | 0.045 | 0.151 |
| ZNF556 (zinc finger protein 556) | 1 | 0.182 | 0.236 | 0.432 | 0.0468 | 0.204 |
| CABYR (calcium binding tyrosine phosphorylation regulated) | 1 | 0.093 | 0.0795 | 0.264 | 0.0195 | 0.129 |
| PTBP3 (polypyrimidine tract binding protein 3) | 1 | 0.147 | 0.371 | 0.286 | 0.0442 | 0.187 |
| VAV2 (vav guanine nucleotide exchange factor 2) | 1 | 0.0657 | 0.357 | 0.279 | 0.0181 | 0.123 |
| SEC61A1 (SEC61 translocon subunit alpha 1) | 1 | 0.238 | 0.221 | 0.172 | 0.0326 | 0.273 |
| MIEF1 (mitochondrial elongation factor 1) | 1 | 0.0758 | 0.144 | 0.287 | 0.0187 | 0.124 |
| SNRPD2 (small nuclear ribonucleoprotein D2 polypeptide) | 1 | 0.134 | 0.618 | 0.24 | 0.0418 | 0.0969 |
| MAPK12 (mitogen-activated protein kinase 12) | 1 | 0.195 | 0.381 | 0.347 | 0.00951 | 0.38 |
| YBX1 (Y-box binding protein 1) | 1 | 0.19 | 0.232 | 0.732 | 0.022 | 0.136 |
| MED27 (mediator complex subunit 27) | 1 | 0.122 | 0.33 | 0.267 | 0.0351 | 0.0468 |
| NCAPD3 (non-SMC condensin II complex subunit D3) | 1 | 0.132 | 0.188 | 0.39 | 0.0282 | 0.122 |
| LPP | 1 | 0.138 | 0.14 | 0.253 | 0.0385 | 0.189 |
| RGS18 (regulator of G protein signaling 18) | 1 | 0.059 | 0.154 | 0.203 | 0.0152 | 0.1 |
| THEMIS2 (thymocyte selection associated family member 2) | 1 | 0.156 | 0.444 | 0.339 | 0.0282 | 0.195 |
| ADH1C (alcohol dehydrogenase 1C (class I), gamma polypeptide) | 1 | 0.102 | 0.76 | 0.18 | 0.0169 | 0.257 |
| G3BP2 (G3BP stress granule assembly factor 2) | 1 | 0.0828 | 0.0391 | 0.221 | 0.011 | 0.21 |
| AQP3 (aquaporin 3 (Gill blood group)) | 1 | 0.133 | 0.198 | 0.295 | 0.0183 | 0.177 |
| SLC7A6 | 1 | 0.167 | 0.122 | 0.228 | 0.0244 | 0.122 |
| AHSG (alpha 2-HS glycoprotein) | 1 | 0.0991 | 0.348 | 0.271 | 0.0221 | 0.249 |
